{"source": "patent US20100210467A1", "about": "“AGENT FOR IMPROVING SUGARCANE BRIX AND METHOD OF PROMOTING SUGARCANE RIPENING USING THE SAME” (Kumiai Chemical Industry Co., Ltd., priority 2007, published 2010)", "system": "sugarcane", "assay": "Example 4: sugar content of sugarcane stem juice after pyribenzoxim back pack spraying, field test in Brazil", "assay_type": "in vivo", "settings": "40 g/ha; initial day of spraying", "method": "In accordance with “NORMAS DE AVALIAçÃO DA […] DA CANA-DE-AçÚCAR” used in Brazilian sugar refining plants as Standard for quality evaluation of sugarcane, the analysis on the sugar content in the squeezed juice of sugarcane stem was carried out for Brix value, sugar content in sugarcane (PC), and total sugar amount recoverable from sugarcane stem (ATR) as follows.\nBrix was measured according to a digital refractometer. PC was calculated according to the equation (1). ATR was calculated according to the equation (5). […]\nNext, 20 individual sugarcanes were cut from each area on the initial day of spraying, after 15 days of spraying, after 30 days of spraying and after 45 days of spraying, and thereafter the stems were squeezed and sugar was recovered from the juice to obtain the yield. Each yield was compared with the yield of the initial day of spraying and the rate of increase (%) was calculated. […]", "data": [{"smiles": "COc1cc(OC)nc(Oc2cccc(Oc3nc(OC)cc(OC)n3)c2C(=O)ON=C(c2ccccc2)c2ccccc2)n1", "note": "[Pyribenzoxim, pyribenzoxim]", "values": [{"measurement": "Concentration of soluble solid matter, Brix", "value": 16.0, "unit": "%"}, {"measurement": "Total sugar amount recoverable from 1 kg of stem, ATR", "value": 112.2, "unit": "g"}]}]}
